Data as given in article PMC12099206.

Each sequence was assayed on GST-CmARF3 (Chrysanthemum morifolium 'Jinba') (assay: EMSA). Conditions: LightShift Chemiluminescent EMSA Kit (Thermo), 6-10 ug CmARF3 protein; pH and temperature not stated; recombinant protein; protein details: N-terminal GST (pET-60-DEST); label: 5' biotin.
“AGACAATCGGTATAACGAGACATTATAAATATTAAAACCTGGTCAGTAAAACCTGCATCACTCTTATATCTTAACGCAAGGATATACGCCCACATGTCATGGATCCTCTATGGGATGACC (double strand) [mP42]”: no binding.
“AGACAATCGGTATAACGATCCATTATAAATATTAAAACCTGGTCAGTAAAACCTGCATCACTCTTATATCTTAACGCAAGGATATACGCCCACATGTCATGGATCCTCTATGGGATGACC (double strand) [mP412]”: no binding.
“AGACAATCGGTATAACGATCCATTATAAATATTAAAACCTGGTCAGTAAAACCTGCATCACTCTTATATCTTAACGCAAGGATATACGCCCACATGTCATGTCTCCTCTATGGGATGACC (double strand) [mP41]”: no binding.
“AGTGCATTGAGGTAGACAATCGGTATAACGAGACATTATAAATATTAAAACCTGGTCAG (double strand) [P1]”: no binding.
“AGTGCATTGAGGTAGACAATCGGTATAACGATCCATTATAAATATTAAAACCTGGTCAG (double strand) [mP1]”: no binding.
“ATATATGGCCCACCCACCCATGTGCCCTCCTGGATCCACCAGCTCCTGCCGCTCAATCA (double strand) [mP3]”: no binding.
“ATATATGGCCCACCCACCCATGTGCCCTCCTGTCTCCACCAGCTCCTGCCGCTCAATCA (double strand) [P3]”: no binding.
“TTAACGCAAGGATATACGCCCACATGTCATGGATCCTCTATGGGATGACCCTCACGTGG (double strand) [mP2]”: no binding.
“TTAACGCAAGGATATACGCCCACATGTCATGTCTCCTCTATGGGATGACCCTCACGTGG (double strand) [P2]”: no binding.

Same assay, conditions: competed by unlabeled P4; LightShift Chemiluminescent EMSA Kit (Thermo), 6-10 ug CmARF3 protein; pH and temperature not stated; recombinant protein; protein details: N-terminal GST (pET-60-DEST); label: 5' biotin
“AGACAATCGGTATAACGAGACATTATAAATATTAAAACCTGGTCAGTAAAACCTGCATCACTCTTATATCTTAACGCAAGGATATACGCCCACATGTCATGTCTCCTCTATGGGATGACC (double strand) [P4]”: binds.

Construct, isoform or probe ends are uncertain for at least one entry. Negatives hold for the conditions tested.
